Experimental data: PubChem BioAssay AID1508597 (Cure First, 2020)
Test: 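Genes whose silencing sensitises or protects ovarian cancer cells against rucaparib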 (primary screen). System: human ovarian carcinoma lines grown from tumours: OCI-P5x (papillary serous) and OCI-C5x (clear cell). Reagents: siRNA pool against human genes, 1.25 pmol siRNA per well. Time to read-out: 72 h or 96 h, depending on the cell culture. Conditions: rucaparib 20 µM (about IC30) or vehicle, present until read-out. Rucaparib or vehicle: Rucaparib. Cell line: OCI-C5x (clear cell). Read-out: 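ATP luminescence measured at 72 or 96 h according to the culture, then normalised and expressed as percent viability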. Reading the numbers: viability, normalised: higher = more viable cells remaining. Active means: 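Active when normalised viability falls below 80 percent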. Calls: active = viability under 80%; inactive = viability 80% or more.
Shown is an unselected part of the about 2,100 reagents, in one setting of the screen. 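Calls flag viability under 80% in either arm, not effects specific to rucaparib; the reference for percent is not stated.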 Unmarked entries are inactive. A reagent listed more than once was tested more than once; the source does not tell the runs apart. Not given: the 100% reference.

GCK (GeneID 2645), technical replicate 1: viability, normalised (%) = 47.1 (active)
GCK (GeneID 2645), technical replicate 2: viability, normalised (%) = 56.4 (active)
GCK (GeneID 2645), technical replicate 3: viability, normalised (%) = 45.6 (active)
ITGB5 (GeneID 3693), technical replicate 1: viability, normalised (%) = 36.2 (active)
ITGB5 (GeneID 3693), technical replicate 2: viability, normalised (%) = 46.2 (active)
ITGB5 (GeneID 3693), technical replicate 3: viability, normalised (%) = 35.5 (active)
RAD21 (GeneID 5885), technical replicate 1: viability, normalised (%) = 49 (active)
RAD21 (GeneID 5885), technical replicate 1: viability, normalised (%) = 53.1 (active)
RAD21 (GeneID 5885), technical replicate 2: viability, normalised (%) = 71.5 (active)
RAD21 (GeneID 5885), technical replicate 2: viability, normalised (%) = 59.5 (active)
RAD21 (GeneID 5885), technical replicate 3: viability, normalised (%) = 56.2 (active)
RAD21 (GeneID 5885), technical replicate 3: viability, normalised (%) = 52.6 (active)
ABL2 (GeneID 27), technical replicate 1: viability, normalised (%) = 80.1
ABL2 (GeneID 27), technical replicate 2: viability, normalised (%) = 53.5 (active)
ABL2 (GeneID 27), technical replicate 3: viability, normalised (%) = 75.2 (active)

Next part; the last 2 above are carried over.
ABL2 (GeneID 27), technical replicate 2: viability, normalised (%) = 53.5 (active)
ABL2 (GeneID 27), technical replicate 3: viability, normalised (%) = 75.2 (active)
ALPK1 (GeneID 80216), technical replicate 1: viability, normalised (%) = 46.8 (active)
ALPK1 (GeneID 80216), technical replicate 1: viability, normalised (%) = 80.1
ALPK1 (GeneID 80216), technical replicate 2: viability, normalised (%) = 49.2 (active)
ALPK1 (GeneID 80216), technical replicate 2: viability, normalised (%) = 44.2 (active)
ALPK1 (GeneID 80216), technical replicate 3: viability, normalised (%) = 57.5 (active)
ALPK1 (GeneID 80216), technical replicate 3: viability, normalised (%) = 50.1 (active)
CNP (GeneID 1267), technical replicate 1: viability, normalised (%) = 69.8 (active)
CNP (GeneID 1267), technical replicate 2: viability, normalised (%) = 49.7 (active)
CNP (GeneID 1267), technical replicate 3: viability, normalised (%) = 51.8 (active)
PSKH2 (GeneID 85481), technical replicate 1: viability, normalised (%) = 41.2 (active)
PSKH2 (GeneID 85481), technical replicate 2: viability, normalised (%) = 54.6 (active)
PSKH2 (GeneID 85481), technical replicate 3: viability, normalised (%) = 34.8 (active)
MUS81 (GeneID 80198), technical replicate 1: viability, normalised (%) = 67.5 (active)
MUS81 (GeneID 80198), technical replicate 2: viability, normalised (%) = 67.2 (active)
MUS81 (GeneID 80198), technical replicate 3: viability, normalised (%) = 70.4 (active)
TH (GeneID 7054), technical replicate 1: viability, normalised (%) = 73.3 (active)
TH (GeneID 7054), technical replicate 2: viability, normalised (%) = 65.6 (active)
TH (GeneID 7054), technical replicate 3: viability, normalised (%) = 41 (active)
DDX59 (GeneID 83479), technical replicate 1: viability, normalised (%) = 52.1 (active)
DDX59 (GeneID 83479), technical replicate 2: viability, normalised (%) = 47.1 (active)
DDX59 (GeneID 83479), technical replicate 3: viability, normalised (%) = 42.4 (active)
CHAF1A (GeneID 10036), technical replicate 1: viability, normalised (%) = 55.3 (active)
CHAF1A (GeneID 10036), technical replicate 1: viability, normalised (%) = 40.6 (active)
CHAF1A (GeneID 10036), technical replicate 2: viability, normalised (%) = 31.9 (active)
CHAF1A (GeneID 10036), technical replicate 2: viability, normalised (%) = 47.6 (active)
CHAF1A (GeneID 10036), technical replicate 3: viability, normalised (%) = 51.7 (active)
CHAF1A (GeneID 10036), technical replicate 3: viability, normalised (%) = 44.2 (active)
